Data from publication doi:10.1101/2021.10.12.463977.
Substitutions are numbered along the chain they refer to. No constants are given. Whether binding was seen depends on the method and setting. Some results given as binding are weak or reduced against the parent protein; the word gives no strength. Tags and fused reporters may be left off the sequences shown.

The chains behind the UniProt entries cited, without tags or fusion partners. Where a name states a change or a piece, a line headed by the entry shows the natural chain unless it says otherwise.
UniProt P39705: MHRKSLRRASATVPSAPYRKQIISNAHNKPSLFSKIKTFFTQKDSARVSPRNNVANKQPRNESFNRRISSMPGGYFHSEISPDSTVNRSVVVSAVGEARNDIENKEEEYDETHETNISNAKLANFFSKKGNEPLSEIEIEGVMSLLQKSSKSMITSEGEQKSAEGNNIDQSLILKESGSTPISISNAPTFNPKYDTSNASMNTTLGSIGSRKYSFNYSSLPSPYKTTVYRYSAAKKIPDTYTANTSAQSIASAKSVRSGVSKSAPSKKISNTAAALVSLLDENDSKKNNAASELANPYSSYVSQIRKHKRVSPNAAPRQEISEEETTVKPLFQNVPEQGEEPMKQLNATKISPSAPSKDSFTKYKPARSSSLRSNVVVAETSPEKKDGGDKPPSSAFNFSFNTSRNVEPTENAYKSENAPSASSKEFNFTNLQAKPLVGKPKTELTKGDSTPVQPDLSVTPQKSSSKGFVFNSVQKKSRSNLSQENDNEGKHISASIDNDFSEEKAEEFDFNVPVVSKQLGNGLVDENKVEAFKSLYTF

Key:
Test in all cases: two-hybrid
[1] = biological target: T1, Nup2 MAR K101E, Gal4 DNA binding domain fusion (Saccharomyces cerevisiae) (UniProt P32499)
T1 sequence: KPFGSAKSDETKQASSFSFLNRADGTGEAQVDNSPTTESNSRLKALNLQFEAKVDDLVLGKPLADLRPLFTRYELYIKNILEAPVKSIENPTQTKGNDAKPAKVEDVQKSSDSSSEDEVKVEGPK

[2] = biological target: T2, Nup2 MAR F120Y, Gal4 DNA binding domain fusion (Saccharomyces cerevisiae) (UniProt P32499)
T2 sequence: T1 sequence with E51K, F70Y

[3] = biological target: T3, mar(89-130), Nup2 amino acids 89-130, two-hybrid bait (Saccharomyces cerevisiae) (UniProt P32499)
T3 sequence: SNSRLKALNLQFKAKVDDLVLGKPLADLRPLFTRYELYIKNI

Substance | binding [1] | binding [2] | binding [3]
full-length Nup60, Gal4 activation domain fusion (from UniProt P39705 1-539) | binds | binds | 
Nup60(188-388), Gal4 activation domain fusion (from UniProt P39705 188-388) (domain or fragment) | no binding | no binding | no binding
